This is one part of the list. Further columns of the screen follow, without active or inactive calls. The list favours compounds with an active or inconclusive main result. The note in brackets gives the kind of curve behind each potency; many fits are weak.
Experiment: qHTS Assay to Find Inhibitors of Chronic Active B-Cell Receptor Signaling
Conditions: ABC-DLBCL IkBa-CBG/CBR reporter, luminescence ratio (green luciferase fused to IkBa over red control in TMD8 lymphoma cells), 4 h
Outline: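 Cell line TMD8 (human ABC DLBCL), stably expressing tet-inducible CBG68-IkBa fusion and CBR; IMDM/0.5% FBS; cpd up to 46 uM; dox induction, 4 h, 37C/5% CO2; dual luminescence; green/red ratio; MG132 control.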

[1] = measured here: CBR red luminescence, cell number

Row | SMILES | AC50 [1] | AC50 (measured here: IkBa-CBG green luminescence)
1 | CCN(CC)c1ccc(/C=N/NC(=O)c2ccc3nc[nH]c3c2)c(O)c1 | 35.5 µM [falling, single point] | 
2 | NC(C(=O)O)C(c1ccccc1)C(F)F (stereo not drawn) | 2 µM [falling, full curve, poor fit] | 
3 | COc1ccc(C2CC(c3c(O)cc(C)oc3=O)=NCCS2)c(OC)c1 (stereo not drawn) | 25.1 µM [rising, partial curve] | 20 µM [falling, partial curve]
4 | Cc1ccc(N(C(=O)CCl)C(C(=O)NC2CCCCC2)c2cccnc2)cc1C (stereo not drawn) | 6.51 µM [falling, partial curve, poor fit] | 
5 | Cn1nnc(NC(=S)NC(=O)c2ccccc2)n1 | 10 µM [falling, partial curve, poor fit] | 
6 | CCCc1cc(NCCCCO)n2c(nc3ccccc32)c1C#N | 25.1 µM [falling, single point] | 
7 | Fc1ccc(CNCc2ccc(Br)cc2)cc1 | 1.3 µM [rising, full curve, poor fit] | 
8 | Cc1cc(Cl)ccc1N=Cc1c(O)n(C)c(=O)n(C)c1=O | 4.47 µM [rising, partial curve, poor fit] | 
9 | CCCCS(=O)(=O)N1CCN(S(=O)(=O)c2ccc(Cl)s2)CC1 | 31.6 µM [rising, single point] | 
10 | O=C(CSc1nnc(-c2ccccc2F)n1C1CC1)Nc1cccnc1Cl | 13 µM [falling, partial curve, poor fit] | 
11 | COc1ccccc1NC(=O)c1cc(C)oc1C | 15.8 µM [rising, single point] | 
12 | OCCNc1c2ccccc2nc2ccccc12 | 35.5 µM [falling, single point] | 
13 | Cc1nn(CC(=O)Nc2ccc(S(=O)(=O)N(C)C)cc2)c(C)c1[N+](=O)[O-] | 0.164 µM [falling, full curve, poor fit] | 
14 | CN(C)c1ccc(C(=O)/C=C/c2ccco2)cc1 | 29.1 µM [falling, single point] | 
15 | O=C(CSc1nnc(-c2ccc(C(F)(F)F)cn2)o1)Nc1cccc(Cl)c1 | 0.562 µM [rising, full curve, poor fit] | 
16 | CCCC(=O)N1CC(=O)Nc2ccc(F)cc2C1c1ccccc1 (stereo not drawn) | 16.4 µM [rising, single point] | 

Already shown: entries from further up.
Row | SMILES | AC50 [1] | AC50 (measured here: IkBa-CBG green luminescence)
3 | COc1ccc(C2CC(c3c(O)cc(C)oc3=O)=NCCS2)c(OC)c1 (stereo not drawn) | 25.1 µM [rising, partial curve] | 20 µM [falling, partial curve]
4 | Cc1ccc(N(C(=O)CCl)C(C(=O)NC2CCCCC2)c2cccnc2)cc1C (stereo not drawn) | 6.51 µM [falling, partial curve, poor fit] | 
5 | Cn1nnc(NC(=S)NC(=O)c2ccccc2)n1 | 10 µM [falling, partial curve, poor fit] | 
6 | CCCc1cc(NCCCCO)n2c(nc3ccccc32)c1C#N | 25.1 µM [falling, single point] | 
7 | Fc1ccc(CNCc2ccc(Br)cc2)cc1 | 1.3 µM [rising, full curve, poor fit] | 
8 | Cc1cc(Cl)ccc1N=Cc1c(O)n(C)c(=O)n(C)c1=O | 4.47 µM [rising, partial curve, poor fit] | 

More compounds follow:

Row | SMILES | AC50 [1] | AC50 (measured here: IkBa-CBG green luminescence)
17 | O=C(Nc1nc2ccc(C(=O)N3CCCCC3)cc2s1)C1CCCCC1 | 0.891 µM [falling, full curve, poor fit] | 
18 | CCc1ccccc1NC(=O)c1cc(=O)c2ccccc2o1 | 35.5 µM [falling, partial curve, poor fit] | 
19 | COc1ccc(Oc2nc(-c3ccccn3)ncc2OC)cc1 | 0.631 µM [rising, full curve, poor fit] | 
20 | C[C@]12C=CC(=O)C=C1CC[C@@H]1[C@@H]2[C@@H](O)C[C@@]2(C)[C@H]1CC[C@]2(O)C(=O)COC(=O)CCC(=O)NCCc1ccc(O)cc1 | 7.08 µM [rising, partial curve, poor fit] | 
21 | O=C(N/N=C/c1ccccc1)C(O)c1ccccc1 (stereo not drawn) | 11.2 µM [falling, partial curve] | 
22 | O=C(NCc1cccnc1)c1ccc2c(c1)C(=O)N(Cc1ccccc1)C2=O | 2 µM [rising, partial curve] | 
23 | COc1ccc(CCN/C=C2/CC(=O)NC2=O)cc1OC | 29.1 µM [falling, single point] | 
24 | CCC(CC)C(=O)Nc1nnc(-c2cccs2)s1 | 2.82 µM [rising, partial curve, poor fit] | 
25 | CCOc1ccccc1NC(=O)/C=C/c1ccc(S(=O)(=O)N2CCOCC2)cc1 | 1.84 µM [falling, full curve] | 
26 | CCOC(=O)CN1C(=O)S/C(=C\c2ccc(-c3ccc(C(=O)O)c(Cl)c3)o2)C1=O | 35.5 µM [falling, single point] | 
27 | COc1cccc(S(=O)(=O)NCc2ccc(C(=O)Nc3ccc(C)cc3)cc2)c1 | 29.1 µM [rising, single point] | 
28 | O=[N+]([O-])c1ccc(O)c(/C=N/Nc2nc3ccccc3[nH]2)c1 | 0.0517 µM [falling, full curve] | 
29 | CCOCCCNC(=O)C(=O)Nc1c2c(nn1-c1ccc(OC)cc1)CSC2 | 31.6 µM [rising, single point] | 
30 | CC(Nc1nc2ccccc2n2cnnc12)c1ccccc1 (stereo not drawn) | 10 µM [falling, partial curve, poor fit] | 
31 | Cc1nc2cc(-c3ccccc3)nn2c(C)c1CCC(=O)NC(C)c1ccc2c(c1)OCCO2 (stereo not drawn) | 14.6 µM [falling, partial curve] | 
32 | N#CCCn1c(C2CCCCC2)nc2ccccc21 | 13 µM [rising, partial curve, poor fit] | 

Source: PubChem BioAssay AID493014 (National Center for Advancing Translational Sciences (NCATS), 2011)
